Experimental data: PubChem BioAssay AID602196 (INSERM, 2012)

- Purpose: 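Genes whose knock-down alters cisplatin killing of lung cancer cells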
- System: human A549 lung cancer cells
- Reagents: siRNA pair against human genes
- Time to read-out: 48 h transfection before cisplatin; time from cisplatin to read-out not stated
- Conditions: cisplatin at a dose killing half of control-siRNA cells; exact dose and duration not given
- Measured: 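Cisplatin cell death as a shift from the 50% death seen with control siRNA; siRNAs toxic or growth-blocking alone scored 0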
- Reading the numbers: two-siRNA summed score (-2 to +2): higher = both siRNAs protect from cisplatin killing; -2 means both sensitise; mean protection from cisplatin (shift in death) and protection from cisplatin (shift in death), siRNA C and protection from cisplatin (shift in death), siRNA D: higher = protection from cisplatin killing
- Hit rule: 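siRNAs harmful alone (LDH or WST-1) get 0; others get +1 for less and -1 for more cisplatin killing; genes are active when the two siRNAs give the same sign, summing to ±2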
- Calls: active = both siRNAs shift cisplatin killing the same way; inactive = no consistent shift, or siRNA harmful alone
This is an unselected part of about 23,000 reagents. 455 of them (2%) were called active. 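Active includes both protection and sensitisation; some change values fall well beyond the stated -50 to +50 range.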 Entries without a mark were called inactive. Reagents against one gene are numbered here. Reagent sequences are not shown. The record does not give: the amount of reagent.

no.	gene knocked down	reagent no.	two-siRNA summed score (-2 to +2)	mean protection from cisplatin (shift in death) (%)	protection from cisplatin (shift in death), siRNA C (%)	protection from cisplatin (shift in death), siRNA D (%)
1	LOC401531	1	0	6.6	5.7	7.5
2	KRT85	1	1	13.9	17.9	9.9
3	PCBD2	1	0	5.4	10	0.9
4	PPIAP31	1	0	-5.9	-15.3	3.6
5	BLOC1S6	1	0	1.8	4.8	-1.2
6	TRIM59	1	0	-3.9	3.5	-11.3
7	LOC400047	1	0	5.9	14.5	-2.7
8	LOC441341	1	1	4.9	-4.8	14.7
9	ADAMTS6	1	1	21	25.3	16.8
10	HEBP1	1	0	-1.7	-3.7	0.4
11	PRDX4	1	-1	-22.3	-25.7	-18.9
12	RABIF	1	0	-6.8	-10	-3.5
13	R-SE10	1	0	5.8	5.2	6.4
14	BTD	1	-1	-5.6	-12.7	1.5
15	MYRF	1	0	-9.2	-12.9	-5.4
16	UBE2K	1	0	18.9	16.6	21.3
17	ZNF41	1	0	5.2	1.2	9.1
18	LOC389991	1	0	7.2	13	1.3
19	LY6G5C	1	1	1.3	-5.9	8.4
20	HIPK2	1	0	10.3	3	17.6
21	CCDC13	1	-1	-7.6	3.2	-18.4
22	DDX41	1	0	-19.6	11.2	-50.4
23	SLC38A11	1	1	18.4	12.5	24.3
24	BEST2	1	0	10.3	3.5	17
25	LMF1	1	0	5.1	9.4	0.7
26	FNTB	1	0	-3.4	-13.4	6.7
27	TTC39B	1	0	0.6	1.4	-0.2
28	SERPINB8	1	-1	3.5	-31.3	38.4
29	TRIM64FP	1	0	5.3	10.7	-0.1
30	RDM1	1	0	-6.6	-14.6	1.4
31	GMEB1	1	-1	-9.6	-5	-14.3
32	ST3GAL1	1	0	-7.4	-5.5	-9.2
33	LOC441345	1	0	3.7	5.2	2.1
34	SRD5A3	1	0	0.4	-3.4	4.3
35	ZNF418	1	0	9.9	7.7	12.1
36	OR2F1	1	0	5.1	8.3	1.8
37	DKK4	1	-1	-12.5	-16.9	-8.2
38	ZNF44	1	0	-5.1	-8.7	-1.6
39	PODN	1	1	7.8	2.1	13.4
40	NLRX1	1	0	4.4	7.7	1.1
41	LOC389172	1	1	14.1	10.9	17.3
42	PLXNB2	1	0	3	8.6	-2.7

3 entries from above, limited to “mean protection from cisplatin (shift in death) (%)”.
LOC389991 = 7.2
LY6G5C = 1.3
HIPK2 = 10.3

The list goes on.
no.	gene knocked down	reagent no.	two-siRNA summed score (-2 to +2)	mean protection from cisplatin (shift in death) (%)	protection from cisplatin (shift in death), siRNA C (%)	protection from cisplatin (shift in death), siRNA D (%)
43	NR1I2	1	0	8.6	11.7	5.4
44	LOC440341	1	0	2	4.1	0
45	GGCX	1	0	-3.2	-9.5	3.1
46	ZHX1	1	0	2.6	9.7	-4.5
47	ZHX1	2	0	13.7	16.9	10.5
48	NPSR1	1	0	-3.1	-6.4	0.2
49	CES4A	1	0	5.7	22.3	-10.8
50	FBXW5	1	0	20.8	24.6	17
51	PRELP	1	0	3.1	6.7	-0.5
52	KCNG3	1	1	11.3	28.6	-5.9
53	LOC401578	1	0	3.4	-3.3	10.1
54	FRMD5	1	0	-9.3	-10.2	-8.3
55	SETBP1	1	0	8.6	7.5	9.7
56	APOE	1	1	9.3	28.5	-10
57	ACER3	1	0	2.3	0.1	4.4
58	DDX10	1	0	-6.4	-8.4	-4.3
59	ATP8B3	1	0	1.4	-5	7.8
60	LOC389395	1	0	7.1	8.8	5.4
61	LOC126037	1	0	4.1	-6.5	14.7
62	AMZ2	1	-1	-17.9	-3.9	-31.9
63	RNF185	1	1	19.3	30.2	8.4
64	NSD3	1	1	9.8	-6.3	26
65	EIF3E	1	0	5	-2.4	12.4
66	LOC440398	1	1	12.4	14.7	10
67	MRPL52	1	1	14.9	14.3	15.5
68	SF3B2	1	0	10.4	11.1	9.7
69	HAUS4	1	0	5.1	9.8	0.3
70	RAET1L	1	-1	-15.1	-1.6	-28.6
71	RLIM	1	0	-26.2	-43.9	-8.6
72	DPYD	1	0	-3.6	11.5	-18.7
73	ACAP2	1	0	-4	4.2	-12.2
